{
  "source": "the supplement of paper PMC6690932",
  "note": "Values joined by “and” are separate entries in the source; they are usually repeats but may differ in a detail not shown here. Identical values can stand only once. The list shows a part of the results. Most values come without repeats; read them as rough.",
  "data": [
    {"system": "HeLa", "assay": "lysosomal-METRIQ red/green fluorescence ratio relative to DMSO (ratio to DMSO); higher = higher lysosomal activity / lysosomal biogenesis", "details": "10 µM; 12 h", "values": [
      {"molecule": "COc1ccc(OC)c2c(=S)c3ccccc3[nH]c12", "lysosomal-METRIQ red/green fluorescence ratio": 1.05},
      {"molecule": "Ic1cccc(CSc2nnc(-c3ccncc3)o2)c1", "note": "[GSK-3 inhibitor II]", "lysosomal-METRIQ red/green fluorescence ratio": 1.2},
      {"molecule": "CO[C@H]1C[C@@H]2CC[C@@H](C)[C@@](O)(O2)C(=O)C(=O)N2CCCC[C@H]2C(=O)O[C@H]([C@H](C)C[C@@H]2CC[C@@H](OCCO)[C@H](OC)C2)CC(=O)[C@H](C)/C=C(\\C)[C@@H](O)[C@@H](OC)C(=O)[C@H](C)C[C@H](C)/C=C/C=C/C=C/1C", "note": "[everolimus]", "lysosomal-METRIQ red/green fluorescence ratio": 1.05},
      {"molecule": "CC(=N)NCc1cccc(CN)c1", "lysosomal-METRIQ red/green fluorescence ratio": 1},
      {"molecule": "COC(=O)C1=C(C)NC(C)=C(C(=O)OC)C1c1ccccc1[N+](=O)[O-]", "note": "[Nifedipine]", "lysosomal-METRIQ red/green fluorescence ratio": 1.08},
      {"molecule": "CN(C)CC[C@H](CSc1ccccc1)Nc1ccc(S(=O)(=O)NC(=O)c2ccc(N3CCN(Cc4ccccc4-c4ccc(Cl)cc4)CC3)cc2)cc1[N+](=O)[O-]", "lysosomal-METRIQ red/green fluorescence ratio": 0.818},
      {"molecule": "CN(C)CCCCC(=O)Nc1ccc(NC(=S)NC(=O)c2ccc(C(C)(C)C)cc2)cc1", "note": "[Tenovin-6]", "lysosomal-METRIQ red/green fluorescence ratio": 0.818},
      {"molecule": "C=CCNC1=C2C[C@@H](C)C[C@H](OC)[C@H](O)[C@@H](C)/C=C(\\C)[C@H](OC(N)=O)[C@@H](OC)/C=C\\C=C(/C)C(=O)NC(=CC1=O)C2=O", "lysosomal-METRIQ red/green fluorescence ratio": 0.867},
      {"molecule": "COc1cccc(-c2cc(=O)c3ccccc3o2)c1N", "lysosomal-METRIQ red/green fluorescence ratio": "0.938 and 1.07"},
      {"molecule": "C[S+]([O-])c1ccc(-c2nc(-c3ccc(F)cc3)c(-c3ccncc3)[nH]2)cc1", "note": "(configuration not stated)", "lysosomal-METRIQ red/green fluorescence ratio": 1.2},
      {"molecule": "O=C(O)c1cc(NCc2cc(O)ccc2O)ccc1O", "note": "[Lavendustin C]", "lysosomal-METRIQ red/green fluorescence ratio": 1.05},
      {"molecule": "C=CCc1cccc(/C=N/NC(=O)CN2CCN(Cc3ccccc3)CC2)c1O", "lysosomal-METRIQ red/green fluorescence ratio": 0.864}
    ]}
  ]
}
